From article PMC9343455
These are yes or no findings as the source states them, for the method shown. In cells and extracts the contact can be indirect. Some entries that bind do so weakly or less than the wild type. For some of these results: Where a sequence is shown, tags or fusion partners need not be part of it.

The chains behind the UniProt entries cited, without tags or fusion partners.
UniProt Q9ULT8: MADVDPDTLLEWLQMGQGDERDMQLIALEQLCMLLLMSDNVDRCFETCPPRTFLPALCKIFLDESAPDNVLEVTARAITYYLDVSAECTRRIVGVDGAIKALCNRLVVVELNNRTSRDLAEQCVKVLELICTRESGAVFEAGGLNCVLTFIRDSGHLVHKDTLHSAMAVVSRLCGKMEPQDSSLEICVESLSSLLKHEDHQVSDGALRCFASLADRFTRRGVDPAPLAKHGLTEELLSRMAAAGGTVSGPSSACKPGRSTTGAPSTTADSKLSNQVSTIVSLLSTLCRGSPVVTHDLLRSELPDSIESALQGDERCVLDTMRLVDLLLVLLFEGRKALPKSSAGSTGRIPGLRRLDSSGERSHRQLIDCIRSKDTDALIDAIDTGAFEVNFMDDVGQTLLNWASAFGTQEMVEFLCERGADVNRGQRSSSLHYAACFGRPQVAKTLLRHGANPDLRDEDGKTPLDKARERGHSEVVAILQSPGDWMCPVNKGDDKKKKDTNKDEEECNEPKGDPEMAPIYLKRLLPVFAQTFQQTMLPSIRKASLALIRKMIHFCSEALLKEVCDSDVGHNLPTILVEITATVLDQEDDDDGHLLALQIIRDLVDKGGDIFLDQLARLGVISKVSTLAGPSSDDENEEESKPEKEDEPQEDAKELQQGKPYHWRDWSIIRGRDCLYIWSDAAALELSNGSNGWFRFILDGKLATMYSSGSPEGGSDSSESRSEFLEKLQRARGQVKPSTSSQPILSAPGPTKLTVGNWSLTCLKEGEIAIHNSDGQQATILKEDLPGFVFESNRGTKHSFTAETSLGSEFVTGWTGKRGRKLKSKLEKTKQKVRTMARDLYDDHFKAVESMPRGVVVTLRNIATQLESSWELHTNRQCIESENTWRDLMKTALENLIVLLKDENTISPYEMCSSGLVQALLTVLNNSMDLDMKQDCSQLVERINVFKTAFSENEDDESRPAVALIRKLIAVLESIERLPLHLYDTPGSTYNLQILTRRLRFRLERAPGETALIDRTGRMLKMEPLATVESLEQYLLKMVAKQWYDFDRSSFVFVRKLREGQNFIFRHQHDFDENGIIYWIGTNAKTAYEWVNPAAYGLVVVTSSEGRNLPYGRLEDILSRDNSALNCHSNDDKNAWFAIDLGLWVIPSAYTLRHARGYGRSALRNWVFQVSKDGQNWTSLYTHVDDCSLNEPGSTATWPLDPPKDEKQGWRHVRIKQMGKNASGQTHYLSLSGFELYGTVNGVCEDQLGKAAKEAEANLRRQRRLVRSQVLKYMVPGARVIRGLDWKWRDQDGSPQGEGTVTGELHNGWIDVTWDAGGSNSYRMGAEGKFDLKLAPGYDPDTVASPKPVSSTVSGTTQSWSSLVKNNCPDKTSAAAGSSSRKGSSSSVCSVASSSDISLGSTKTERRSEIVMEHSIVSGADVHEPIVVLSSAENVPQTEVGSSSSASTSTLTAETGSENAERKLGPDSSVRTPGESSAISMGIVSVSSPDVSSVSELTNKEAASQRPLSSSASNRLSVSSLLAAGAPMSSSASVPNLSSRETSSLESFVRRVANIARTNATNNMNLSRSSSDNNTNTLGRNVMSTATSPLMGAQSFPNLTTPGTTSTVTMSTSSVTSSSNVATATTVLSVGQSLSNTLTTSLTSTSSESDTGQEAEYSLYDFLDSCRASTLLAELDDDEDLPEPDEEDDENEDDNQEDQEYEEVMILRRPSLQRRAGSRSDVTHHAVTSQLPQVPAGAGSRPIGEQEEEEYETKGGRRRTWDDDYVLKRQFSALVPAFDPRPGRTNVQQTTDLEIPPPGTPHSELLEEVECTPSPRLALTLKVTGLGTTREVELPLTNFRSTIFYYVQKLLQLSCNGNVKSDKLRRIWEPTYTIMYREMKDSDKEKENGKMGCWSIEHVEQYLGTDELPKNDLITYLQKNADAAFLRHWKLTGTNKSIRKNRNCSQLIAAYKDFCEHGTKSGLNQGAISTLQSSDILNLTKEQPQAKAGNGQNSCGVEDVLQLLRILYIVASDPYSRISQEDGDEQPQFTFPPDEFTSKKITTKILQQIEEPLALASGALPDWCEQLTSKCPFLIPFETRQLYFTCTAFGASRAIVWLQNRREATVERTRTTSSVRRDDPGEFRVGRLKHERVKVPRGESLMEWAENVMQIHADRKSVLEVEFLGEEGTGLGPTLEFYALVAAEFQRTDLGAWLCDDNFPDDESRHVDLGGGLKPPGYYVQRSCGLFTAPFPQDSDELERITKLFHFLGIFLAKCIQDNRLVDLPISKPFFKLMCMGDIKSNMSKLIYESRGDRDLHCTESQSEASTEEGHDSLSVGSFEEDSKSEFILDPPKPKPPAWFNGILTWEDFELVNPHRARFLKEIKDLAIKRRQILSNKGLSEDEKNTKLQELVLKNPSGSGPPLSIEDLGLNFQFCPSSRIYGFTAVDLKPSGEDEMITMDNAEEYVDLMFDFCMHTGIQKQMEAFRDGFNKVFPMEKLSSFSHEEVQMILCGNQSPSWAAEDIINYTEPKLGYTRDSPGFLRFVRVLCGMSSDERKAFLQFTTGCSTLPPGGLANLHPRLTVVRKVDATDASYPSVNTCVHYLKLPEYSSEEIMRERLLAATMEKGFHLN
UniProt O43684: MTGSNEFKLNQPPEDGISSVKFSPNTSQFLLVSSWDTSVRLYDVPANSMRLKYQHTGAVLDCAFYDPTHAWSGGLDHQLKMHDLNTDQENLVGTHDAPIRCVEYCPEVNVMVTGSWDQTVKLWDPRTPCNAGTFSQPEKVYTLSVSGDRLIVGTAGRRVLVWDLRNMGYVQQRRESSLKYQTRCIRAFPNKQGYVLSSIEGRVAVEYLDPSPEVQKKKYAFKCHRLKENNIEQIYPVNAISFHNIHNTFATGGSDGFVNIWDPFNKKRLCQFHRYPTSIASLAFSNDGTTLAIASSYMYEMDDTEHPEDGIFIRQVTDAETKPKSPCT
UniProt O60566: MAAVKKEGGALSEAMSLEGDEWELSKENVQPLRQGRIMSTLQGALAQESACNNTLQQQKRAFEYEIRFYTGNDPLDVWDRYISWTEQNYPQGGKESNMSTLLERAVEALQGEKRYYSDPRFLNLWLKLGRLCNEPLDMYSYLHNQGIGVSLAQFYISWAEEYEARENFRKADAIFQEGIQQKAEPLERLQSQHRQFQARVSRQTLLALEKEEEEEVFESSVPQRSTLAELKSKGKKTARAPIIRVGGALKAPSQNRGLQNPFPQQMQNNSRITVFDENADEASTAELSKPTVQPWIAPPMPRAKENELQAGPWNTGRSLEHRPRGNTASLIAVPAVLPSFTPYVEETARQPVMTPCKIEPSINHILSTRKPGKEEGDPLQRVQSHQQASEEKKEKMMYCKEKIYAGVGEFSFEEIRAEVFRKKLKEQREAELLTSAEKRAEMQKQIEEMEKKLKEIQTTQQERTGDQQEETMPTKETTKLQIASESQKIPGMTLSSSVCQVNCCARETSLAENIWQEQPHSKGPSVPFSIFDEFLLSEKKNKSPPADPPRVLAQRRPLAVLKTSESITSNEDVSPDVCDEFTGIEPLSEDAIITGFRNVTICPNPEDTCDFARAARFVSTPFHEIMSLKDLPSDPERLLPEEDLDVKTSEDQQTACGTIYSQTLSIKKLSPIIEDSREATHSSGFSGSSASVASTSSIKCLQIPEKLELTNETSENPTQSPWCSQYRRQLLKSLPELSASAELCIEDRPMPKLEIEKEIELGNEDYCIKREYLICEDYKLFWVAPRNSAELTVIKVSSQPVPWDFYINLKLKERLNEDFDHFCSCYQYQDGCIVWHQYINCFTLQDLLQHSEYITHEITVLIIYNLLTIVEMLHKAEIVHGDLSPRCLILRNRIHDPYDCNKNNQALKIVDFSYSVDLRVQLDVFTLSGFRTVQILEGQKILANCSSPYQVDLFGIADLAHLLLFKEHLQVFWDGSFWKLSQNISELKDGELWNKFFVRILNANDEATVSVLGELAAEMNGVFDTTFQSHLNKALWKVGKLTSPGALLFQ
UniProt Q13257: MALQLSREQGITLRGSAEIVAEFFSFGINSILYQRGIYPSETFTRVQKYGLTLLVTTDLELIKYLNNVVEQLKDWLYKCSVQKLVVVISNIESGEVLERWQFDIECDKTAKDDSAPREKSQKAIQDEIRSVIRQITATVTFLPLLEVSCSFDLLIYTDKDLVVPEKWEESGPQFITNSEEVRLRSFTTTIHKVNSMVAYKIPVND

Key:
[1] = target: HECTD1 (endogenous) (human (endogenous in HEK293T)) (UniProt Q9ULT8); assay: co-IP; endogenous HECTD1 precipitated with 4 ug anti-HECTD1 antibody on protein G Dynabeads, normal rabbit IgG as control; Triton lysis buffer, 1 h at RT; cells asynchronous or treated with Nocodazole (18 h, 50 ng/ml); immunoblot
[2] = target: T1, GST-TRABID NZF 1–3 (UniProt Q9UGI0); assay: pull-down; 10 ug GST-tagged bait on glutathione magnetic agarose beads, with HEK293T lysate overnight at 4 °C in 150 mM NaCl, 50 mM Tris pH 7.4, 100 uM ZnCl2, 0.1% NP-40; washed in 250 mM NaCl; cells asynchronous (DMSO or 10 uM MG132 for 6 h) or synchronised in G1, S, G2 or M; immunoblot; only the target purified
T1 sequence: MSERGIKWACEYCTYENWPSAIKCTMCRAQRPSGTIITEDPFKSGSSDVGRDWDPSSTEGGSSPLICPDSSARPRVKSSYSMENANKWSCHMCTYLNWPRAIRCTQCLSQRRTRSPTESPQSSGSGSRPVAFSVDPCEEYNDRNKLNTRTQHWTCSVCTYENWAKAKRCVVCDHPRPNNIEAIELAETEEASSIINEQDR

Row | Substance | binding [1] | binding [2]
1 | BUB3 (endogenous) (from UniProt O43684 1-328) | binds | binds
2 | BUBR1 (endogenous) (from UniProt O60566 1-1050) | no binding | 
3 | MAD2 (endogenous) (from UniProt Q13257 1-205) | no binding | 
